Reference: US7514207B2, “Methods of screening for compounds that decrease phosphorylation of merlin and may be useful in cancer treatment” (Massachusetts Institute of Technology, priority 2001, dated 2009)
Results are given in words; binding and its absence hold for the method and conditions named. In cells and extracts the contact can be indirect. Some binding calls cover weakened binding; strength is not graded here.

Protein sequences, listed by entry. Tags and fused reporters are not part of them. Lines headed by an entry give the natural chain unless they say otherwise; changes in a name come on top. Chains listed by the source or under a name are the forms on record and can include a tag or linker.
UniProt Q13153: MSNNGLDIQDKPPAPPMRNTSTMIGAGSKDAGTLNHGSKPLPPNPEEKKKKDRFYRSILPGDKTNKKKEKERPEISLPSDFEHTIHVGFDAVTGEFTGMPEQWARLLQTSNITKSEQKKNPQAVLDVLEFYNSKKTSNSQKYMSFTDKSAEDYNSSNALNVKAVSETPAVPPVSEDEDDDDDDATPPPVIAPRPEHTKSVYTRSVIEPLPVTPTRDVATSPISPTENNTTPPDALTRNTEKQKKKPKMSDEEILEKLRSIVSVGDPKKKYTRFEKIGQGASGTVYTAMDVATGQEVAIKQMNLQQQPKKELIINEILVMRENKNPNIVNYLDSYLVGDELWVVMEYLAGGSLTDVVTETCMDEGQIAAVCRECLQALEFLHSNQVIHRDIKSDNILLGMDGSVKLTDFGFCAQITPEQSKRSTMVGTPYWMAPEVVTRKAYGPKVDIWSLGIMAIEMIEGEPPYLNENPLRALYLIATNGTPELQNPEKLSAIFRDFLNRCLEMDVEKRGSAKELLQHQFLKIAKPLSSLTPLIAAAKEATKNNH
UniProt Q13177: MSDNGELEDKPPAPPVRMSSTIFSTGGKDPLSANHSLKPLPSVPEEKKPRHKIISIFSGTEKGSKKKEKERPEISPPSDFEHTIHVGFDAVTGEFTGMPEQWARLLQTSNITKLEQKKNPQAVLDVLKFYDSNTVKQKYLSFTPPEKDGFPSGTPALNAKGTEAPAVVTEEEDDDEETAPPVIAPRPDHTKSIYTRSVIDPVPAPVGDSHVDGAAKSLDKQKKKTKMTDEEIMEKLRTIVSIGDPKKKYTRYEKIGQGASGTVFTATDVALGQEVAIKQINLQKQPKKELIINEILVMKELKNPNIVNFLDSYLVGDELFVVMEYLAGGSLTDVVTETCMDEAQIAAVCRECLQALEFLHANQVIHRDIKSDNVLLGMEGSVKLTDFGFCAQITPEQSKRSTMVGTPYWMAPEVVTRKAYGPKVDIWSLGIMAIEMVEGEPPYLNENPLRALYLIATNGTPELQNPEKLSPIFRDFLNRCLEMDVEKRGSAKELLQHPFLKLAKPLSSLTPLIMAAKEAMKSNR
PAK3 (transfected) (O75914, form named): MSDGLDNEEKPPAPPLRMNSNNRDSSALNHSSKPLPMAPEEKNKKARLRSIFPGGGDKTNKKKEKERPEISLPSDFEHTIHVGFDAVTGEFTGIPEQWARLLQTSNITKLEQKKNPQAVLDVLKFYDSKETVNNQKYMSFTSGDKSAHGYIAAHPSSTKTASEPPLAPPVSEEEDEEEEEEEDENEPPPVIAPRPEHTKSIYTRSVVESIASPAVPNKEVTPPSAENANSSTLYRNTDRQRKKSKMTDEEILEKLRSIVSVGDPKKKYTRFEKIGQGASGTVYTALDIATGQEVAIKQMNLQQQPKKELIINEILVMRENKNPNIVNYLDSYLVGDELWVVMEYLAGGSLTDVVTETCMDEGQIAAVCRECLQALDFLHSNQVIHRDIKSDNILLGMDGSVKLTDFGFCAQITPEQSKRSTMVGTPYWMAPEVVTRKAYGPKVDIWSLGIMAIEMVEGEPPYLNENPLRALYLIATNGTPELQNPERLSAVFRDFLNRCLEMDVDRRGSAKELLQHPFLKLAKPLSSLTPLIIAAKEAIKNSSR
UniProt P35240: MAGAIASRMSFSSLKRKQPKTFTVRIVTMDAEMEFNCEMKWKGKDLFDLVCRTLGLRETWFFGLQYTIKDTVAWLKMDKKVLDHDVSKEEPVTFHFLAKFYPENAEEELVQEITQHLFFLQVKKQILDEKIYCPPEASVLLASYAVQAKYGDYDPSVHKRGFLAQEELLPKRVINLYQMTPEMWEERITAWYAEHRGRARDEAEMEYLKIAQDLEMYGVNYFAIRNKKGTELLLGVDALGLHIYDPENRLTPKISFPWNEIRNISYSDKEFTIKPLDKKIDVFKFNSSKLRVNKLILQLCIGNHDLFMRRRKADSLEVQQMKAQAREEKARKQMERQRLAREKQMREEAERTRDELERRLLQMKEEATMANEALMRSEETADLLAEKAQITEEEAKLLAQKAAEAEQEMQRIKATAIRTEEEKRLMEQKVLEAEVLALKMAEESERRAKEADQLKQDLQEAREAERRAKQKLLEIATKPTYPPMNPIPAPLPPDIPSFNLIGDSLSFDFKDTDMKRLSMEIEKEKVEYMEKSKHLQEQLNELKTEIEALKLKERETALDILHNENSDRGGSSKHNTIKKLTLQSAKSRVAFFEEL

How the values were obtained:
Test in all cases: co-immunoprecipitation from transfected NIH3T3 cells
PAK1 (transfected) = PAK1 (transfected) (UniProt Q13153)
[1] = molecular target: PAK2 wild-type (transfected) (UniProt Q13177)
PAK3 (transfected) = PAK3 (transfected) (UniProt O75914)

binding (PAK1 (transfected)): binds
binding [1]: binds
binding (PAK3 (transfected)): binds
Substance: wild-type merlin (full-length, ectopically expressed) (from UniProt P35240 1-595)
